We go through 1 molecule from paper doi:10.1101/2021.03.24.436638.

The assay has as its target calnexin (simian (endogenous in COS7)). Put plainly: co-IP.

No constants are given. Whether binding was seen depends on the method and setting. Binding seen in cells or lysates may run through a third protein. A result given as binding can be weak or reduced; the word gives no strength.

B1: neuronal glycine transporter GlyT2, wild type (protein, UniProt P58295 1-799)
chain: MDCSAPKEMNKPPTNILEATVPGHRDSPRAPRTSPEQDLPAAAPAAAVQPPRVPRSASTGAQTFQSADARACEAQRPGVGFCKLSSPQAQATSAALRDLSEGHSAQANPPSGAAGAGNALHCKIPALRGPEEDENVSVGKGTLEHNNTPAVGWVNMSQSTVVLGTDGIASVLPGSVATTTIPEDEQGDENKARGNWSSKLDFILSMVGYAVGLGNVWRFPYLAFQNGGGAFLIPYLMMLALAGLPIFFLEVSLGQFASQGPVSVWKAIPALQGCGIAMLIISVLIAIYYNVIICYTLFYLFASFVSVLPWGSCNNPWNTPECKDKTKLLLDSCVIGDHPKIQIKNSTFCMTAYPNLTMVNFTSQANKTFVSGSEEYFKYFVLKISAGIEYPGEIRWPLAFCLFLAWVIVYASLAKGIKTSGKVVYFTATFPYVVLVILLIRGVTLPGAGAGIWYFITPKWEKLTDATVWKDAATQIFFSLSAAWGGLITLSSYNKFHNNCYRDTLIVTCTNSATSIFAGFVIFSVIGFMANERKVNIENVADQGPGIAFVVYPEALTRLPLSPFWAIIFFLMLLTLGLDTMFATIETIVTSISDEFPKYLRTHKPVFTLGCCICFFIMGFPMITQGGIYMFQLVDTYAASYALVIIAIFELVGISYVYGLQRFCEDIEMMIGFQPNIFWKVCWAFVTPTILTFILCFSFYQWEPMTYGSYRYPNWSMVLGWLMLACSVIWIPIMFVIKMYLAPGRFIERLKLVCSPQPDWGPFLAQHRGERYKNMIDPLGTSSLGLKLPVKDLELGTQC
Regarding B1, the binding entry is on record as “binds”.
